# The supplement of paper PMC8728848
# The other results are listed elsewhere or left out.
# B1: B3GalT2 (Rattus norvegicus) (protein)
# chain: LMLQWRRRHCCFAKMSWNAKRSLFRTHLMGVLSLVFLFAMFLFFNHHDWLPGRPGFKENPVTYTFRGFRSTKTETNQSSLRNIWKEVVPQTLRPQTATNSNNTELSPQGVTGLENTLSANGSIYNEKGTGHPNSYHFKYIINEPEKCQEKSPFLILLIAAEPGQIEARRAIRQTWGNETLAPGIQITRIFLLGISIKLNGYLQHAIQEESIQYHDIIQQEYLDTYYNLTIKTLMGMNWVATYCPHTPYVMKTDSDMFVNTEYLIHKLLKPDLPPRHNYFTGYLMRGYAPNRNKDSKWYMPPDLYPSERYPVFCSGTGYVFSGDLAEKIFKVSLGIRRLHLEDVYVGICLAKLRVDPVPPPNEFVFNHWRVSYSSCKYSHLITSHQFQPSELIKYWNHLQQNKHNACVNAAKEKAGRYRHRKLH
# Columns and labels:
# Assay in all cases: glycan array binding signal (z-score within array); higher = stronger binding
# Settings in all cases: glycan notation: IUPAC condensed, linker removed
# [1] = molecular target: Gal(b1-3)GlcNAc(b1-6)[Gal(b1-3)]GalNAc
# In short: (§1)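 Glycan array data were curated from 3228 arrays in the Consortium for Functional Glycomics database and kept only where the protein sequence was available. Glycan names were converted to IUPAC-condensed notation, and columns mapping to the same glycan were averaged. The binding signal is a within-array Z-score, averaged across arrays of the same protein sequence at different concentrations or buffers and across linkers. Negative Z-scores can be read as non-binding.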
# Gal(b1-3)GlcNAc6S = molecular target: Gal(b1-3)GlcNAc6S
# In short: as §1
# [2] = molecular target: Gal(b1-3)[Fuc(a1-4)]GlcNAc
# In short: as §1
# [3] = molecular target: Gal(b1-3)[Fuc(a1-4)]GlcNAc(b1-2)Man
# In short: as §1
# [4] = molecular target: Gal(b1-3)[Fuc(a1-4)]GlcNAc(b1-2)Man(a1-3)[Gal(b1-3)[Fuc(a1-4)]GlcNAc(b1-2)Man(a1-6)]Man(b1-4)GlcNAc(b1-4)[Fuc(a1-6)]GlcNAc
# In short: as §1
# [5] = molecular target: Gal(b1-3)[Fuc(a1-4)]GlcNAc(b1-3)Gal(b1-3)[Fuc(a1-4)]GlcNAc
# In short: as §1
# [6] = molecular target: Gal(b1-3)[Fuc(a1-4)]GlcNAc(b1-3)Gal(b1-4)[Fuc(a1-3)]GlcNAc
# In short: as §1
# [7] = molecular target: Gal(b1-3)[Fuc(a1-4)]GlcNAc(b1-6)GalNAc
# In short: as §1
# [8] = molecular target: Gal(b1-3)[GlcNAc(b1-6)]GalNAc
# In short: as §1
# [9] = molecular target: Gal(b1-3)[Neu5Ac(a2-6)]GalNAc
# In short: as §1
# [10] = molecular target: Gal(b1-3)[Neu5Ac(a2-6)]GlcNAc(b1-4)Gal(b1-4)Glc
# In short: as §1
# [11] = molecular target: Gal(b1-3)[Neu5Ac(b2-6)]GalNAc
# In short: as §1
# Gal(b1-4)Gal = molecular target: Gal(b1-4)Gal
# In short: as §1
# [12] = molecular target: Gal(b1-4)GalNAc(a1-3)[Fuc(a1-2)]Gal(b1-4)GlcNAc
# In short: as §1
# [13] = molecular target: Gal(b1-4)GalNAc(b1-3)[Fuc(a1-2)]Gal(b1-4)GlcNAc
# In short: as §1
# Gal(b1-4)Glc = molecular target: Gal(b1-4)Glc
# In short: as §1
# Gal(b1-4)Glc6S = molecular target: Gal(b1-4)Glc6S
# In short: as §1
# Gal(b1-4)GlcNAc = molecular target: Gal(b1-4)GlcNAc
# In short: as §1
# [14] = molecular target: Gal(b1-4)GlcNAc(a1-6)Gal(b1-4)GlcNAc
# In short: as §1
# Gal(b1-4)GlcNAc(b1-2)Man = molecular target: Gal(b1-4)GlcNAc(b1-2)Man
# In short: as §1
# [15] = molecular target: Gal(b1-4)GlcNAc(b1-2)Man(a1-3)Man(b1-4)GlcNAc(b1-4)GlcNAc
# In short: as §1
# [16] = molecular target: Gal(b1-4)GlcNAc(b1-2)Man(a1-3)[Gal(b1-4)GlcNAc(b1-2)Man(a1-6)]Man(b1-4)GlcNAc(b1-4)GlcNAc
# In short: as §1
# [17] = molecular target: Gal(b1-4)GlcNAc(b1-2)Man(a1-3)[Gal(b1-4)GlcNAc(b1-2)Man(a1-6)]Man(b1-4)GlcNAc(b1-4)[Fuc(a1-6)]GlcNAc
# In short: as §1
# [18] = molecular target: Gal(b1-4)GlcNAc(b1-2)Man(a1-3)[Gal(b1-4)GlcNAc(b1-2)Man(a1-6)][Gal(b1-4)GlcNAc(b1-4)]Man(b1-4)GlcNAc(b1-4)[Fuc(a1-6)]GlcNAc
# In short: as §1
# [19] = molecular target: Gal(b1-4)GlcNAc(b1-2)Man(a1-3)[Gal(b1-4)GlcNAc(b1-2)Man(a1-6)][GlcNAc(b1-4)]Man(b1-4)GlcNAc(b1-4)[Fuc(a1-6)]GlcNAc
# In short: as §1
# [20] = molecular target: Gal(b1-4)GlcNAc(b1-2)Man(a1-3)[GlcNAc(b1-2)Man(a1-6)]Man(b1-4)GlcNAc(b1-4)GlcNAc
# In short: as §1
# [21] = molecular target: Gal(b1-4)GlcNAc(b1-2)Man(a1-3)[GlcNAc(b1-4)][Gal(b1-4)GlcNAc(b1-2)Man(a1-6)]Man(b1-4)GlcNAc(b1-4)GlcNAc
# In short: as §1
# [22] = molecular target: Gal(b1-4)GlcNAc(b1-2)Man(a1-3)[Man(a1-6)]Man(b1-4)GlcNAc(b1-4)GlcNAc
# In short: as §1
# [23] = molecular target: Gal(b1-4)GlcNAc(b1-2)Man(a1-6)Man(b1-4)GlcNAc(b1-4)GlcNAc
# In short: as §1
# [24] = molecular target: Gal(b1-4)GlcNAc(b1-2)Man(a1-6)[GlcNAc(b1-2)Man(a1-3)]Man(b1-4)GlcNAc(b1-4)GlcNAc
# In short: as §1
# [25] = molecular target: Gal(b1-4)GlcNAc(b1-2)Man(a1-6)[Man(a1-3)]Man(b1-4)GlcNAc(b1-4)GlcNAc
# In short: as §1
# [26] = molecular target: Gal(b1-4)GlcNAc(b1-2)[Gal(b1-4)GlcNAc(b1-4)]Man(a1-3)[Gal(b1-4)GlcNAc(b1-2)Man(a1-6)]Man(b1-4)GlcNAc(b1-4)GlcNAc
# In short: as §1
# [27] = molecular target: Gal(b1-4)GlcNAc(b1-2)[Gal(b1-4)GlcNAc(b1-4)]Man(a1-3)[Gal(b1-4)GlcNAc(b1-2)[Gal(b1-4)GlcNAc(b1-6)]Man(a1-6)]Man(b1-4)GlcNAc(b1-4)GlcNAc
# In short: as §1
# [28] = molecular target: Gal(b1-4)GlcNAc(b1-2)[Gal(b1-4)GlcNAc(b1-4)]Man(a1-3)[GlcNAc(b1-4)][Gal(b1-4)GlcNAc(b1-2)Man(a1-6)]Man(b1-4)GlcNAc(b1-4)GlcNAc
# In short: as §1
# [29] = molecular target: Gal(b1-4)GlcNAc(b1-2)[Gal(b1-4)GlcNAc(b1-4)]Man(a1-3)[GlcNAc(b1-4)][Gal(b1-4)GlcNAc(b1-2)[Gal(b1-4)GlcNAc(b1-6)]Man(a1-6)]Man(b1-4)GlcNAc(b1-4)GlcNAc
# In short: as §1
# [30] = molecular target: Gal(b1-4)GlcNAc(b1-2)[Gal(b1-4)GlcNAc(b1-6)]Man(a1-6)[Gal(b1-4)GlcNAc(b1-2)Man(a1-3)]Man(b1-4)GlcNAc(b1-4)GlcNAc
# In short: as §1
# [31] = molecular target: Gal(b1-4)GlcNAc(b1-2)[Gal(b1-4)GlcNAc(b1-6)]Man(a1-6)[Gal(b1-4)GlcNAc(b1-2)Man(a1-3)]Man(b1-4)GlcNAc(b1-4)[Fuc(a1-6)]GlcNAc
# In short: as §1
binder,measurement,setting,value
B1,glycan array binding signal (z-score),[1],0.217
same,glycan array binding signal (z-score),Gal(b1-3)GlcNAc6S,0.164
same,glycan array binding signal (z-score),[2],0.393
same,glycan array binding signal (z-score),[3],-0.42
same,glycan array binding signal (z-score),[4],-0.692
same,glycan array binding signal (z-score),[5],-0.858
same,glycan array binding signal (z-score),[6],0.498
same,glycan array binding signal (z-score),[7],-0.962
same,glycan array binding signal (z-score),[8],0.288
same,glycan array binding signal (z-score),[9],0.06
same,glycan array binding signal (z-score),[10],-0.723
same,glycan array binding signal (z-score),[11],-0.113
same,glycan array binding signal (z-score),Gal(b1-4)Gal,-0.869
same,glycan array binding signal (z-score),[12],-1.07
same,glycan array binding signal (z-score),[13],-0.715
same,glycan array binding signal (z-score),Gal(b1-4)Glc,-0.279
same,glycan array binding signal (z-score),Gal(b1-4)Glc6S,0.586
same,glycan array binding signal (z-score),Gal(b1-4)GlcNAc,0.882
same,glycan array binding signal (z-score),[14],0.093
same,glycan array binding signal (z-score),Gal(b1-4)GlcNAc(b1-2)Man,0.209
same,glycan array binding signal (z-score),[15],-0.898
same,glycan array binding signal (z-score),[16],-0.8
same,glycan array binding signal (z-score),[17],0.541
same,glycan array binding signal (z-score),[18],1.2
same,glycan array binding signal (z-score),[19],-0.425
same,glycan array binding signal (z-score),[20],-0.763
same,glycan array binding signal (z-score),[21],-0.363
same,glycan array binding signal (z-score),[22],0.177
same,glycan array binding signal (z-score),[23],0.051
same,glycan array binding signal (z-score),[24],-0.128
same,glycan array binding signal (z-score),[25],-0.953
same,glycan array binding signal (z-score),[26],-0.941
same,glycan array binding signal (z-score),[27],-0.929
same,glycan array binding signal (z-score),[28],-0.433
same,glycan array binding signal (z-score),[29],0.352
same,glycan array binding signal (z-score),[30],-0.761
same,glycan array binding signal (z-score),[31],-0.609

# Nothing new here: an excerpt of the list.
binder,measurement,setting,value
B1,glycan array binding signal (z-score),Gal(b1-3)GlcNAc6S,0.164
same,glycan array binding signal (z-score),[2],0.393
